Experimental data taken from patent publication US10501487B2, “Antibacterial bismuth complexes” (priority 2015, dated 2019).
Some results were stated once for a whole list of compounds, not compound by compound.

System: cos 7 (monkey kidney-derived) cells
Test: MTT-based toxicology assay
Format: cell-based
Conditions: 1 mg/mL, two hours; relative to blank or control Cos 7 cells
Method: Toxicity testing was performed on the example complexes 1-5 as well as the corresponding ligands against cos 7 eukaryotic cells. Cytotoxicity was assessed using the MTT-based toxicology assay (Sigma-Aldrich; TOX1 assay kit) according to the manufacturer's instructions. Compounds were added to cultured cos 7 (monkey kidney-derived) cells at 1 mg/mL and 0.5 mg/mL for two hours. The MTT reagent was then added and cells were incubated at 37° C. for a further two hours. Following incubation, MTT solubilisation solution was added and mixed. Absorbance results were measured on a Tecan plate reader at 690 nm (background reading) and again at 570 nm. Results were calculated after subtracting the background reading (690 nm) from the values obtained at 570 nm. Cell viability was expressed as a normalised percentage against the blank (medium-only) negative controls. All assays were performed in duplicate.

## O=P([O][Bi]([O]P(=O)(c1ccccc1)c1ccccc1)[c]1ccccc1)(c1ccccc1)c1ccccc1 [Example 1, Phenyl bismuth bis(diphenylphosphinate)]
  normalised cell viability: ≥ 60%

## O=[PH]([O][Bi]([O][PH](=O)c1ccccc1)[c]1ccccc1)c1ccccc1 (stereo not drawn) [Example 4, Phenyl bismuth bis(phenylphosphinate)]
  normalised cell viability: ≥ 60%

## CP(C)(=O)[O][Bi]([O]P(C)(C)=O)[c]1ccccc1 [Example 5, Phenyl Bismuth bis(dimethylphosphinate)]
  normalised cell viability: ≥ 60%
